Results on four molecules are retold here after article PMC12432130.

Protein sequences, listed by entry. Tags and fused reporters are not part of them.
UniProt O75494: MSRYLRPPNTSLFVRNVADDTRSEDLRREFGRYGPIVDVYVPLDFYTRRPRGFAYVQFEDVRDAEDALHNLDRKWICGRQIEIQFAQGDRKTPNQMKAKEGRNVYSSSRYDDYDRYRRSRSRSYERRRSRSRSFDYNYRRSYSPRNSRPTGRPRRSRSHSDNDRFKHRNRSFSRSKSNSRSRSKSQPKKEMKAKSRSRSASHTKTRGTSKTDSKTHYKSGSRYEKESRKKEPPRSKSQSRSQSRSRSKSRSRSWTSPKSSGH

Results are given in words; binding and its absence hold for the method and conditions named. In cells and extracts the contact can be indirect. Here binding means that the protein was enriched with, or labelled near, the bait; the list need not be complete. Where a sequence is shown, tags or fusion partners need not be part of it.

This assay deals with T1, Flag-tagged TTK protein kinase (UniProt P33981).
T1 sequence: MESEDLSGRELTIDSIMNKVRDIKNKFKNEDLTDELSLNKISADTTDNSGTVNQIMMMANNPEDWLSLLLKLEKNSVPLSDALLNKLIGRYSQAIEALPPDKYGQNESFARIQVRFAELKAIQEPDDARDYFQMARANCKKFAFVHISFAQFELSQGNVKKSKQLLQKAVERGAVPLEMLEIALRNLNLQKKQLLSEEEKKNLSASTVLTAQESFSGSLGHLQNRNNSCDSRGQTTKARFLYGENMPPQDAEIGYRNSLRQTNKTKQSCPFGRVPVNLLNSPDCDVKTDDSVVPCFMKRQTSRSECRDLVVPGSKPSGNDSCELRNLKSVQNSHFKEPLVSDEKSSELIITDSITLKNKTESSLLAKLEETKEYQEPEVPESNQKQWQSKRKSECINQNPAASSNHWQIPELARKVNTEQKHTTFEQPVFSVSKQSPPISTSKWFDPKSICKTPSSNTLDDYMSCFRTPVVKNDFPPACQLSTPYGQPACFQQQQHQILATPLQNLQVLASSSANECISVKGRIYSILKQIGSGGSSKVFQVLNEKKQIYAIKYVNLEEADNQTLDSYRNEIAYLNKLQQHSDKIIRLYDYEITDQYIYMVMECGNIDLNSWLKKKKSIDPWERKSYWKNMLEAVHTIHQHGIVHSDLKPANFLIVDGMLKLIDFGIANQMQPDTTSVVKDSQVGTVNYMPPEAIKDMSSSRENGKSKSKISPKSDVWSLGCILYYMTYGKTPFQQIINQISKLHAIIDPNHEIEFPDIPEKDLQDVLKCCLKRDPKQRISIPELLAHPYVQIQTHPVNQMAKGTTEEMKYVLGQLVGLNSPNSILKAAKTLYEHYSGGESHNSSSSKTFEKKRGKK
In words: affinity purification with mass spectrometry; Flag-TTK expressed in RT-112 cells, immunoprecipitated with Flag antibody; co-immunoprecipitated proteins silver stained, bands excised and identified by MS.

Regarding SRSF10 (from UniProt O75494 1-262), the binding entry is “binds”.

B1: SRSF2 (protein, UniProt Q01130 1-221)
chain: MSYGRPPPDVEGMTSLKVDNLTYRTSPDTLRRVFEKYGRVGDVYIPRDRYTKESRGFAFVRFHDKRDAEDAMDAMDGAVLDGRELRVQMARYGRPPDSHHSRRGPPPRRYGGGGYGRRSRSPRRRRRSRSRSRSRSRSRSRSRYSRSKSRSRTRSRSRSTSKSRSARRSKSKSSSVSRSRSRSRSRSRSRSPPPVSKRESKSRSRSKSPPKSPEEEGAVSS
For the molecule B1, the binding result is recorded as “binds”.

B2: SRSF7 (protein, UniProt Q16629 1-238)
chain: MSRYGRYGGETKVYVGNLGTGAGKGELERAFSYYGPLRTVWIARNPPGFAFVEFEDPRDAEDAVRGLDGKVICGSRVRVELSTGMPRRSRFDRPPARRPFDPNDRCYECGEKGHYAYDCHRYSRRRRSRSRSRSHSRSRGRRYSRSRSRSRGRRSRSASPRRSRSISLRRSRSASLRRSRSGSIKGSRYFQSPSRSRSRSRSISRPRSSRSKSRSPSPKRSRSPSGSPRRSASPERMD
Regarding B2, the binding entry is reported as “binds”.

B3: SRSF3 (protein, UniProt P84103 1-164)
chain: MHRDSCPLDCKVYVGNLGNNGNKTELERAFGYYGPLRSVWVARNPPGFAFVEFEDPRDAADAVRELDGRTLCGCRVRVELSNGEKRSRNRGPPPSWGRRPRDDYRRRSPPPRRRSPRRRSFSRSRSRSLSRDRRRERSLSRERNHKPSRSFSRSRSRSRSNERK
For the molecule B3, the binding entry was “binds”.
